Measured values reported in patent US20090044291A1, “DROUGHT-RESISTANT PLANTS AND METHOD FOR PRODUCING THE PLANTS” (D-Helix, priority 2006, published 2009).
At least one structure is not confirmed: it was looked up by name or label, or the drawing left a doubt.

Assays:
[1] = target: T1, natural ABAR/CHLH protein (Arabidopsis thaliana, UniProt Q9FNB0); assay: Pull-down assay with anti-ABAR serum; assay type: binding; conditions: 30 nM [3H](+)ABA
T1 construct: 50 μg proteins of the crude extracts from two-week-old Arabidopsis seedlings; from tissue; host or cells: crude extracts of two-week-old Arabidopsis seedlings / leaves of gl1 (WT), RNAi line 12 and overexpressor line 1
T1 sequence (Q9FNB0 50-1381): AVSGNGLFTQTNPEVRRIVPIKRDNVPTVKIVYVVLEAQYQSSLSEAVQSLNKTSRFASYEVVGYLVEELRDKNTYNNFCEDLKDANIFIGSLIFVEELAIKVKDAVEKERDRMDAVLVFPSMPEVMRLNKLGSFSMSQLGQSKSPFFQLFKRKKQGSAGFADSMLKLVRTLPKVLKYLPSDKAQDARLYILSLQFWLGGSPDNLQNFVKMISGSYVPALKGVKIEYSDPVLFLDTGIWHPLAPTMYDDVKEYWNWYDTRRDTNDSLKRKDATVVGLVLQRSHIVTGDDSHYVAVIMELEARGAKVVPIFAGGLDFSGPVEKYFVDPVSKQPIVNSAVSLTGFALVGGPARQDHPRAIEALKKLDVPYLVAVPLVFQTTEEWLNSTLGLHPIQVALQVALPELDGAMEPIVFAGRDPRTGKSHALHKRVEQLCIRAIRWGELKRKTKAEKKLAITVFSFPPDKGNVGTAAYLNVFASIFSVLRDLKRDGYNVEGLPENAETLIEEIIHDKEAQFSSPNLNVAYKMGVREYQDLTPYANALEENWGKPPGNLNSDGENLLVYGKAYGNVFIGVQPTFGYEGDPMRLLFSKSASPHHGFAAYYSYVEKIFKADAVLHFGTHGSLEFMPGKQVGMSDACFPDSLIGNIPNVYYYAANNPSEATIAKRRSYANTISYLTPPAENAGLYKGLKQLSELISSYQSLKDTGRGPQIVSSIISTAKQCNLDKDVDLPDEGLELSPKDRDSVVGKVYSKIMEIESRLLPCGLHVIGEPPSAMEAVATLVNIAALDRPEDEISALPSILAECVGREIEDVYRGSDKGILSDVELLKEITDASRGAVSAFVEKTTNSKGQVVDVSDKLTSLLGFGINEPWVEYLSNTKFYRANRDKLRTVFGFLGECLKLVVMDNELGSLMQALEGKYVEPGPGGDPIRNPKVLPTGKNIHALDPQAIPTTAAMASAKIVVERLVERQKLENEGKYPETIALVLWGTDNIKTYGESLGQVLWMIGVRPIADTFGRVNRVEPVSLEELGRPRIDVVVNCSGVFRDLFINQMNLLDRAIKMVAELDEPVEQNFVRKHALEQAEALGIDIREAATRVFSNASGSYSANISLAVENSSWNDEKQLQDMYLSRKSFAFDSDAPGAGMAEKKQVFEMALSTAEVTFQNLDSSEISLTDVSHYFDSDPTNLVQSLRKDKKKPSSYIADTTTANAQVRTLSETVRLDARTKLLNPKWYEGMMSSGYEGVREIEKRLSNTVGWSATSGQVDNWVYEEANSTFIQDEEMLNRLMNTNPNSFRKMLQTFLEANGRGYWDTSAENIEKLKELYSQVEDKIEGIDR
Procedure: The pull down assay was done as follows to detect ABA binding to the natural ABAR/CHLH protein. Total proteins were extracted from two-week-old Arabidopsis seedlings with the medium C composed of the medium B supplemented with 250 mM mannitol. The crude extracts (3 mg total proteins) was incubated by gently shaking in the medium C (400 μl) containing 30 nM [^3H](+)ABA at 4° C. for 2 h, and the anti-ABAR^N serum (10 μg, described below) was added into the medium for a further incubation at 4° C. for 2 h, and then the medium was supplemented by 100 μl 25% (v/v) protein A-agarose (Santa Cruz) for a final incubation at 4° C. for 2 h. Following the incubation, protein A-agarose was recovered by a brief centrifugation and washed with 1 ml medium C. The pellets were resuspended in […] water and mixed with scintillation fluid before the radioactivity (d.p.m., disintegrations per minute) of the bound [^3H](+)ABA was measured.
Three independent control experiments were performed for the pull down assays. A control was done by addition of the same amounts of mouse preimmune serum instead of the antiserum to the medium of the above-described pull down assay in the extracts from the leaves of wild-type plants. […]

[2] = target: T2, Arabidopsis ABAR/CHLH (H subunit of Mg-chelatase) (Arabidopsis thaliana, UniProt Q9FNB0); assay: ABA binding assay with purified yeast-expressed ABAR/CHLH; conditions: purified ABAR, 30 nM [3H]ABA, 1 to 1000-fold molar excess of competitor
T2 construct: 6xHis; made in house; host or cells: Pichia methanolica (Pichia Methanolica Expression kit, Invitrogen)
T2 sequence (Q9FNB0 50-1381): T1 sequence (Q9FNB0 50-1381)
Procedure: Full-length ABAR/CHLH coding sequence was PCR-amplified with forward primer 5′-[…]-3′ (SEQ ID NO:30) and reverse primer 5′-[…]-3′ (SEQ ID NO:31). The recombinant ABAR/CHLH was expressed in yeast as a fusion protein with a 6×His (SEQ ID NO:32) tag by using Pichia Methanolica Expression kit (Invitrogen) and the fusion protein was affinity-purified according to manufacturer's instructions.
The ABA-binding activity of ABAR was assayed according to the previously described procedures (Zhang, D. P. et al., Plant physiol. 128:714-725 (2002)) with modifications. The binding medium (medium A) contained 50 mM Tris-HCl (pH 7.0), 2 mM MgCl2, 1 mM CaCl2, and 250 mM mannitol. […] Following the addition of 100 μl 0.5% (w/v) Dextran T70-coated charcoal (DCC) to remove the free [^3H]ABA by adsorption, the mixtures were maintained on ice for 5 min, and then centrifuged to remove DCC before the radioactivity in the supernatant was counted. The specific binding was determined by the difference between the radioactivity bound to the immuno-purified ABAR protein or crude extracts of Arabidopsis seedlings incubated only with [^3H]ABA (total binding) and radioactivity bound in the presence of 1,000-fold molar excess of unlabeled (+)-ABA (Sigma; non-specific binding. Non-specific binding in all the assays was lower than 10% of the total binding, see FIG. 1a, d1). […]

Compound: C=CC1=C(C)c2cc3[nH]c(cc4nc(cc5[nH]c(cc1n2)c(C)c5CCC(=O)O)C(CCC(=O)O)=C4C)c(C)c3C=C [Protoporphyrin IX]
- displacement of [3H]ABA / stereospecificity of pulled-down ABA-binding activity [1]: not able to displace
- displacement of [3H](+)-ABA binding [2]: not able to displace
